PubChem BioAssay AID1259254 – NCATS | 2017

Test: 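Gene knock-downs that lead to re-replication, shown by excess G2 DNA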 (primary screen)
Cell system: human HCT116 colorectal cancer cells
Knock-down reagent: single siRNA against human genes
Duration: 3 days
Measurement: 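Imaged Hoechst DNA stain sorts each cell into a cycle phase by DNA amount; per plate, G2 fraction set to 0% for non-targeting and 100% for GMNN siRNA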
Direction: G2 robust z-score: higher = more G2 cells, more excess DNA replication
Hit rule: 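Active siRNAs have a G2 robust z of 5 or more median absolute deviations over the median, which in these data means about 38% or higher of GMNN control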
This is a random part of about 59,000 reagents tested. About 1,550 of them (2.6%) count as active. 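G2 share is only a proxy for re-replication; each gene was hit by three separate siRNAs, and active genes were retested.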 The numbers tell different reagents against one gene apart. Further read-outs or replicates are left out here. Reagent sequences are not shown. Not given: the amount of reagent.

The first 2 entries, ahead of the listing:
| target gene | siRNA no. | G2 robust z-score | Outcome |
| --- | --- | --- | --- |
| FLACC1 | 1 | 1 | inactive |
| FLACC1 | 2 | 0.397 | inactive |

The listing, from the first entry:
| target gene | siRNA no. | G2 robust z-score | Outcome |
| --- | --- | --- | --- |
| FLACC1 | 1 | 1 | inactive |
| FLACC1 | 2 | 0.397 | inactive |
| FLACC1 | 3 | -0.165 | inactive |
| NIPSNAP3A | 1 | 4.96 | inactive |
| NIPSNAP3A | 2 | 1.77 | inactive |
| NIPSNAP3A | 3 | 0.126 | inactive |
| MFAP2 | 1 | 0.131 | inactive |
| MFAP2 | 2 | 0.481 | inactive |
| MFAP2 | 3 | 2.11 | inactive |
| USP44 | 1 | 0.303 | inactive |
| USP44 | 2 | -1.52 | inactive |
| USP44 | 3 | 0.268 | inactive |
| RAB40B | 1 | -0.863 | inactive |
| RAB40B | 2 | -0.525 | inactive |
| RAB40B | 3 | 3.72 | inactive |
| DGAT2L6 | 1 | -0.0888 | inactive |
| DGAT2L6 | 2 | 1.01 | inactive |
| DGAT2L6 | 3 | 5.92 | active |
| ZMAT2 | 1 | 1.25 | inactive |
| ZMAT2 | 2 | 1.17 | inactive |
| ZMAT2 | 3 | 0.819 | inactive |
| IGIP | 1 | -0.265 | inactive |
| IGIP | 2 | 0.469 | inactive |
| IGIP | 3 | 0.274 | inactive |
| RBM17 | 1 | 0.954 | inactive |
| RBM17 | 2 | 3.65 | inactive |
| RBM17 | 3 | -0.39 | inactive |
| RAPGEF5 | 1 | -0.548 | inactive |
| RAPGEF5 | 2 | 0.341 | inactive |
| RAPGEF5 | 3 | 0.284 | inactive |
| SCOC | 1 | 0.205 | inactive |
| SCOC | 2 | 3.48 | inactive |
| SCOC | 3 | 0.67 | inactive |
| PCK2 | 1 | 4.23 | inactive |
| PCK2 | 2 | 0.862 | inactive |
| PCK2 | 3 | -0.262 | inactive |
| SIAH2 | 1 | 1.71 | inactive |
| SIAH2 | 2 | 0.354 | inactive |
| SIAH2 | 3 | 0.251 | inactive |
| LRRC37A17P | 1 | -0.034 | inactive |
| LRRC37A17P | 2 | 0.317 | inactive |
| LRRC37A17P | 3 | 0.186 | inactive |
| LRRC37A17P | 4 | -0.296 | inactive |
| LRRC37A17P | 5 | -0.532 | inactive |
| LRRC37A17P | 6 | 1.34 | inactive |
| LCP1 | 1 | 0.949 | inactive |
| LCP1 | 2 | 0.822 | inactive |
| LCP1 | 3 | -0.102 | inactive |
| BEX5 | 1 | -0.415 | inactive |
| BEX5 | 2 | 0.358 | inactive |
| BEX5 | 3 | -0.449 | inactive |
| LRCOL1 | 1 | 0.654 | inactive |
| LRCOL1 | 2 | 1.17 | inactive |
| LRCOL1 | 3 | 0.599 | inactive |
| SCGB1D1 | 1 | 0.00391 | inactive |
| SCGB1D1 | 2 | -0.378 | inactive |
| SCGB1D1 | 3 | -0.174 | inactive |
| SLC19A3 | 1 | -0.201 | inactive |
| SLC19A3 | 2 | 0.0164 | inactive |
| SLC19A3 | 3 | 4.99 | inactive |
| AFAP1L1 | 1 | -0.794 | inactive |
| AFAP1L1 | 2 | 2.07 | inactive |
| AFAP1L1 | 3 | -0.662 | inactive |
| SIX1 | 1 | -0.953 | inactive |
| SIX1 | 2 | 1.34 | inactive |
| SIX1 | 3 | -1.21 | inactive |
| CYP4F11 | 1 | -0.939 | inactive |
| CYP4F11 | 2 | -1.16 | inactive |
| CYP4F11 | 3 | 3.17 | inactive |
